Test results published in PubChem BioAssay AID540256 (National Center for Advancing Translational Sciences (NCATS), 2011).
About 3,700 (1.2%) of roughly 300,000 compounds were called active. The shares of active, inactive and inconclusive entries below differ from those in the screen. Calls come from the whole dose curve; tested in HEK293 cells. Where the call is inconclusive, the potency comes from a doubtful curve fit.

Experiment: qHTS for Inhibitors of binding or entry into cells for Lassa Virus; note: nearly all actives have a fitted effect of over 50% in size
Settings: Lassa virus pseudotype entry inhibition, cell reporter; activity change, negative = inhibition: at 37.9 µM (top of the series) unless noted
% is set by controls: 0 for no effect and ±100 for the full control effect; potency is the fitted concentration of half-maximal effect.

Structure (SMILES) | Potency | activity change, negative = inhibition
CCOC(=O)N1CCN(C(=O)CN(Cc2ccc(Cl)cc2)S(=O)(=O)c2ccc(C)cc2)CC1 | active: 8.2 µM | 
CC(=O)c1ccc(-c2ccccc2)cc1 |  | inactive: 18.3%
CCc1ccc(NCc2cc3ccc(OC)cc3n(CC(=O)Nc3ccc(C(C)C)cc3)c2=O)cc1 |  | inactive: -1.08% [at 46.1 µM]
Nc1ccc(C#Cc2cncnc2Nc2ccc(OCc3cccc(F)c3)c(Cl)c2)cc1 | active: 3.15 µM | 
Cc1ccc(-n2ncc3c2CC(C)(C)CC3NC(=O)c2c(C)noc2C)cc1 (centres undefined) | inconclusive: 35.5 µM [inhibitor, single point] | 
COc1ccc(Cl)cc1NC(=O)CSC1=Nc2ccccc2C2=NC(CC(=O)NC3CCCCC3)C(=O)N12 (centres undefined) | inconclusive: 25.1 µM [inhibitor, single point] | 
CC(O)CNCCCOc1cccc(C(F)(F)F)c1 (centres undefined) | inconclusive: 0.562 µM [inhibitor, partial curve, poor fit] | 
CCCNC(=O)N1C2=NC(C(=O)OC)=C(C(=O)OC)[C@@H]3Nc4ccccc4[C@]23C[C@H]1C(=O)OC | inconclusive: 6.68 µM [activator, single point] | 
COc1ccc(NS(=O)(=O)c2cccc(NC(=O)c3ccc(S(=O)(=O)N4CCCCCC4)cc3)c2)cc1 | active: 8.2 µM | 
O=C(/C=C/c1ccccc1)NC(NC(=S)Nc1ccc(Cl)cc1Cl)C(Cl)(Cl)Cl (centres undefined) | inconclusive: 20 µM [inhibitor, single point] | 
COc1ccc(NC(=O)c2cccc(N3C(=O)c4ccc(C(=O)Nc5ccc(OC)c(O)c5)cc4C3=O)c2)cc1O | inconclusive: 11.2 µM [inhibitor, partial curve, poor fit] | 
O=C1NC(=S)N(C(=O)c2ccc(F)cc2)/C1=C/c1cccnc1 | inconclusive: 1.26 µM [inhibitor, single point] | 
Cc1nn(C)cc1CN1CCCC(C(=O)c2ccc(-c3ccccc3)c(F)c2)C1 (centres undefined) | inconclusive: 35.5 µM [inhibitor, single point] | 
O=C(CNS(=O)(=O)c1ccccc1)OCC(=O)c1ccc([N+](=O)[O-])cc1 | inconclusive: 0.158 µM [inhibitor, full curve, poor fit] | 
N#C/C(=C(/O)COC(=O)CCCNC(=O)c1ccc(Cl)cc1)c1nc2ccccc2[nH]1 | inconclusive: 16.4 µM [inhibitor, partial curve, poor fit] | 
Cc1nc(N2CCN(c3ccccn3)CC2)c2c(C)c(C(=O)Nc3ccccc3F)sc2n1 | inconclusive: 6.31 µM [inhibitor, partial curve, poor fit] | 
CC(C)c1cc(NC(=O)C(C)(C)C)cc(C(C)C)c1O | inconclusive: 0.366 µM [activator, partial curve] | 
CS(=O)(=O)c1oc(-c2ccc(F)cc2)nc1S(=O)(=O)c1ccc(Cl)cc1 | inconclusive: 5.62 µM [inhibitor, full curve] | 
Cc1ccc(C2C3=C(NCCN=C3c3ccccc3)C(=O)N2c2ccccc2)cc1 (centres undefined) | inconclusive: 29.1 µM [inhibitor, single point] | 
Cc1ccc(NC(=O)Cn2cnc3c(cnn3C(C)(C)C)c2=O)cc1 |  | inactive: 1.32%

2 of these compounds, set out differently:

| Structure (SMILES) | Potency | activity change, negative = inhibition |
| --- | --- | --- |
| CCCNC(=O)N1C2=NC(C(=O)OC)=C(C(=O)OC)[C@@H]3Nc4ccccc4[C@]23C[C@H]1C(=O)OC | inconclusive: 6.68 µM [activator, single point] |  |
| Cc1nc(N2CCN(c3ccccn3)CC2)c2c(C)c(C(=O)Nc3ccccc3F)sc2n1 | inconclusive: 6.31 µM [inhibitor, partial curve, poor fit] |  |

Continued.

Structure (SMILES) | Potency | activity change, negative = inhibition
COc1ccc(-n2c(=O)c3c(C)c(C)sc3n(CC(=O)NCc3ccc(C)cc3)c2=O)c(OC)c1 | inconclusive: 8.91 µM [inhibitor, partial curve, poor fit] | 
Cc1c(Cl)cccc1NC(=S)Nc1ccc(S(=O)(=O)Nc2ncccn2)cc1 | inconclusive: 3.55 µM [inhibitor, partial curve, poor fit] | 
CCOc1ccccc1CNC(=O)c1ccc(-c2nc(CSc3ccc(C)cc3)c(C)o2)cc1 | inconclusive: 17.8 µM [inhibitor, partial curve, poor fit] | 
Nc1ncc(-c2cccc(S(N)(=O)=O)c2)c2scc(-c3ccc(F)c(Cl)c3)c12 | active: 22.3 µM | 
c1ccc(CCNCCCOc2cccc3ccccc23)cc1 | inconclusive: 35.5 µM [inhibitor, single point] | 
CCC1CCC(C(=O)NNC(=O)OC)CC1 (centres undefined) | inconclusive: 2.82 µM [inhibitor, partial curve, poor fit] | 
Cc1c(NC(=O)CC(C)C)cccc1-c1nc2cccnc2s1 | inconclusive: 35.5 µM [inhibitor, single point] | 
CCCCN1C(=O)NC(NC(C)=O)(C(F)(F)F)C1=O (centres undefined) |  | inactive: -2.17%
O=C(c1ccco1)N(Cc1cccc([N+](=O)[O-])c1)c1ccc(Br)cc1 | inconclusive: 25.1 µM [inhibitor, single point] | 
CCCCNc1c([N+](=O)[O-])cc(C(=O)O)cc1[N+](=O)[O-] | inconclusive: 14.6 µM [inhibitor, partial curve, poor fit] | 
Cc1c(C(=O)OCC(=O)Nc2c(C)n(C)n(-c3ccccc3)c2=O)cccc1[N+](=O)[O-] |  | inactive: -0.543%
COc1ccc(/C=C(\C#N)C(=O)OCC(=O)NCc2ccccc2Cl)cc1 |  | inactive: 10.1%
Cc1nn(C)c(C(=O)Nc2ccc(S(=O)(=O)NC34CC5CC(CC(C5)C3)C4)cc2)c1Br | inconclusive: 6.31 µM [inhibitor, full curve, poor fit] | 
CCOC(=O)C1CCCN(S(=O)(=O)c2cc3c4c(c2)CCC(=O)N4CCC3)C1 (centres undefined) |  | inactive: -27.7% [at 46.1 µM]
C/C(N)=C(/C#N)C(=O)COC(=O)c1cc(S(=O)(=O)N2CCCCC2)ccc1C | inconclusive: 29.1 µM [inhibitor, single point] | 
O=C(OCc1nnc(-c2ccccc2)o1)C1=COCCO1 | inconclusive: 0.259 µM [activator, single point] | 
CCOC(=O)c1c(C)[nH]c(C(=O)N2CCC(C(=O)OCC)CC2)c1C | inconclusive: 7.08 µM [inhibitor, partial curve, poor fit] | 
CCOc1ccc(OC(=O)c2cn(-c3cccc(OC)c3)c(=O)c3ccccc23)cc1 | inconclusive: 11.2 µM [inhibitor, partial curve, poor fit] | 
COc1cc(C2CC(=O)Nc3cc(C)c(C)cc32)cc(OC)c1OC (centres undefined) | inconclusive: 5.62 µM [inhibitor, full curve] | 
